Here are results for 20 compounds from PubChem BioAssay AID2685 (National Center for Advancing Translational Sciences (NCATS), 2010).

Structures are written as SMILES. The list shows a part of the results. Shown are side measurements of this screen, not its main read-out; they come without a call. Compounds called inactive in the main read-out are mostly missing here. Words in brackets tell the shape of the fitted curve; partial curves, single points and poor fits give uncertain potencies.

By AC50 is commonly meant the concentration giving half of the maximal activity seen. Low values mean activity at low concentration, high ones activity only at high concentration.

This test is described as follows: qHTS Assay for Lipid Storage Modulators in Drosophila S3 Cells.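 For cell number change: cells counted by Cell Tracker Red CMTPX staining in the red channel.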 Conditions: BODIPY lipid droplet fluorescence, 18-24 h; for cell number change: measured here: cell count max response, cells fed with added oleic acid. In outline:
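Drosophila S3 cells got compounds at several concentrations plus oleic acid (400 uM solution). Laser-scanning cytometry with 488 nm excitation read lipid droplets at 500-530 nm and cells at 575-640 nm. Percent activity was relative to 20 uM Triacsin C.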

Where [1] appears, read: measured here: lipid fluorescence (Fed channel) AC50, cells fed with added oleic acid.
[2] abbreviates: measured here: cell number channel AC50, cells fed with added oleic acid.

On to `CCN(CC)S(=O)(=O)c1cc(C(=O)NC2=NCCS2)ccc1Cl`, for which the cell number change stood at 9.26%. For `COc1cc2oc(=O)ccc2cc1[C@H](O)[C@@H](O)C(C)(C)O`, the cell number change worked out at 10.7%. Moreover, under setting [1], the AC50 was 29.1 µM [rising, single point].

As for `COc1ccc(C(=O)NC(=S)NC(C)(C)C)cc1Br`, the cell number change is -32%. The AC50 under setting [2] is 18.4 µM [falling, single point].

With `C=CCOc1c(Br)cc(/C=N\n2nnnc2N)cc1OC`, the concentration at half-maximal activity (AC50) by setting is: under setting [2], 1.03 µM [rising, partial curve]; under setting [1], 1.84 µM [rising, partial curve, poor fit]. In the case of `O=C(Cn1cc(C(F)(F)F)cc(Cl)c1=O)NCc1ccc(F)cc1`, the cell number change is -21%. Moreover, the AC50 under setting [1] is 6.51 µM [falling, partial curve]. Regarding `CCOC(=O)CC(NS(=O)(=O)Cc1ccccc1)c1ccc(C)cc1` (stereo unspecified), the cell number change is -7.46%. Also, the AC50 under setting [1] is 0.00461 µM [falling, full curve, poor fit]. As to `CCN(CCCNC(=O)C1CCN(S(=O)(=O)CC)CC1)c1ccccc1`, the cell number change was -3.99%.

On to `COc1ccccc1/C=C/C(=O)NCC(=O)N1CCC(N(C)C2CCCC2)CC1`, for which the cell number change is -25%. In addition, the AC50 under setting [1] is 0.184 µM [falling, full curve, poor fit]. Turning to `Cc1cnc(C(=O)Oc2ccc(-c3ccccc3)cc2)cn1`, the cell number change came to 8.82%. Besides, the AC50 under setting [1] was 29.1 µM [rising, single point].

On to `CCc1ccc(OC)c(S(=O)(=O)Nc2ccccc2C)c1`, for which the cell number change was 8.4%. Moreover, the concentration at half-maximal activity (AC50) under setting [1] was 1.84 µM [rising, partial curve]. On to `COc1ccc(/C=C/C(=O)c2oc3ccc(F)cc3c2C)cc1`, for which, under setting [1], the concentration at half-maximal activity (AC50) was 0.58 µM [rising, single point].

With `Cn1c(=O)c(=O)n(C)c2cc(N3CCOCC3)c(NS(=O)(=O)c3ccc(Br)cc3)cc21`, the AC50 under setting [1] was 2.31 µM [falling, partial curve]. Turning to `CCc1ccccc1N1C(=O)CC(Sc2nccc(C)n2)C1=O` (stereo unspecified), the cell number change is -2.91%. The AC50 under setting [1] is 25.9 µM [falling, single point].

Turning to `O=C(Nc1ccc(CN2CCCCC2)cc1)c1ccc(Br)o1`, the cell number change was -0.364%. The half-maximal activity concentration (AC50) under setting [1] is 11.6 µM [rising, single point].

As for `COc1cc(-c2nnc(COC(=O)C3c4ccccc4Oc4ccccc43)o2)cc(OC)c1OC`, the cell number change was -6.54%. Still for that read-out and setting: as for `COc1ccc(C(=O)CC2(C(=O)O)CCCCC2)cc1`, the figure is 8.73%; as for `COc1ccc(CC(=O)Nc2cccc(/C(C)=N/NC(=O)c3cccc([N+](=O)[O-])c3)c2)cc1`, -12.8%; as for `CC(C)CCCN1C(N(C)C)=NC[C@@H]1C`, 15%. Consider `CC(C)(C)c1cc(CN2CCN(CCO)CC2)cc(C(C)(C)C)c1O`, for which the cell number change is -11.4%. In addition, the AC50 under setting [1] is 14.6 µM [falling, single point]. Regarding `COc1ccc(C(=O)NCc2nnc(SCC(=O)Nc3cccc(OC)c3)o2)cc1`, the concentration at half-maximal activity (AC50) under setting [1] was 6.51 µM [rising, single point].
